# Screening data, single-dose tests

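Whole-parasite assay of Trypanosoma brucei over 72 hours; the read-out is not stated. Tested at 30 µM. Direction is inferred from retests: higher values go with stronger inhibition. Values scatter widely below zero; nearly all retest evidence comes from the higher of the two concentrations used. About 64,000 compounds were tested under these conditions; 1.5% (about 940) showed 50% or more at least once.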

Results are given as percent effect. How 0% and 100% were set is not recorded. Most values in the screen are low, and negative values occur. The compounds are a random part of those screened.

compound	Percent Effect
O=c1n(CC2CCCO2)nc(CC2CCNCC2)n1-c1ccccc1 (stereo unspecified)	-3.302
CC(C)(O)CN1CCN(C(=O)c2sccc2C2CC2)CC1	-4.987
CC1CN(CCC(=O)NCCc2cccnc2)Cc2ccccc2O1 (stereo unspecified)	-18.82
O=C(O)C(F)(F)F.[H][C@@]12CN(C(=O)c3ccoc3C)C[C@]1([H])OCCN2C(C)C	5.268
CC(C)n1cc(C(=O)NCCN(C)C)c2n[nH]c(=O)c-2c1	-52.73
Cc1ccc2[nH]c(C3CCN(CC(N)=O)CC3)nc2c1	-23.96
Cc1nc(N2CCCC2)nc2c1CCN(C(=O)N(C)C)CC2	3.219
Cc1noc(C)c1CN(C)C(=O)C1(N)CCCCC1	-80.27
COc1ncccc1-c1cc(C(=O)NC2CC2)ccn1	-60.23
CCCC(NC(=O)c1cc(C)ccc1C)c1nnn[nH]1 (stereo unspecified)	14.14
Cc1nnc(C2CCN(C(=O)c3ccc4[nH]ccc4c3)CC2)s1	-4.235
Cc1ccc(CN(CCN(C)C)C(=O)Nc2cc(C(N)=O)ccc2C)s1	-57.13
O=C(O)C(F)(F)F.O=C(O)C(F)(F)F.O=C(O)C(F)(F)F.[H][C@@]12CCN(c3ncccn3)[C@@]1([H])CCN2Cc1ccccn1	-22.89
Cc1nc(C)c(S(=O)(=O)NC(=O)c2sccc2C)s1	-27.7
CN1CC(c2ccccc2)CC12CCN(C(=O)c1cncc(Cl)c1)CC2 (stereo unspecified)	1.538
Cc1cccc(CN2CCC(N(C)Cc3nnc(C4CC4)n3C)C2)c1 (stereo unspecified)	-3.893
COc1cc(N2CCN(Cc3ccsc3)C(CCO)C2)nc(N)n1 (stereo unspecified)	-46.12
N[C@@H]1c2ccccc2C2(CCN(C(=O)c3ccccc3O)CC2)[C@H]1O	-22.2
Cc1n[nH]c(C)c1CC(=O)N1CC[C@@](C)(O)[C@H](Oc2ccccc2)C1	9.962
O=C(CN1CCc2ccccc21)Nc1ccc(OC(F)F)cc1	-47.64
Cc1nnc(N2CCCC(CS(N)(=O)=O)C2)c(C#N)c1C (stereo unspecified)	-10.45
[H][C@@]12CN(Cc3cccc(-c4ccccc4C)c3)C[C@]1(C(=O)O)CNC2=O	-38.15
CNc1nc2c(c(C(=O)N3CCCC3)n1)CN(Cc1ccco1)CC2	-5.611
Cc1cc(C(C)(O)CNC(=O)CCn2ccnc2C(C)C)c(C)o1 (stereo unspecified)	-35.08
CNC(=O)CN1CCc2c(CNc3nccs3)n[nH]c2C1.O=C(O)C(F)(F)F	-11.16
O=C(c1cnc2ccc(F)cc2c1NCc1ccccn1)N1CCCC1	-1.7
O=C(c1cccs1)N1CCC2(CC1)CN(c1cncnc1)C(=O)CO2	-103.9
COc1ccc(C2=NOC(C(=O)N3CCCc4ccccc43)C2)cc1 (stereo unspecified)	-17.71
[H][C@@]12CN(c3nccs3)C[C@]1([H])N(Cc1ccccc1OC)C(=O)O2	-6.532
O=C(O)C(F)(F)F.[H][C@@]12CCN(C(=O)C(C)C)CC[C@]1(C(=O)N1CCCC1)CCN2C	0.9474
Cl.Cl.c1c(CN2CCCC2)nc2n1CCNC2	-61.65
CC(NC1(CNC(=O)C(C)(C)C#N)CCOCC1)c1ccccc1 (stereo unspecified)	-20.75
COC(=O)c1cc(OCC2CCC2)cc(C(=O)N[C@H]2CC[C@H](O)CC2)c1	-48.62
Cc1cccc(CN2CCOC(C)(C(=O)N3CCOCC3)C2)n1 (stereo unspecified)	-20.55
CC(C(=O)NCCOc1cccc(Cl)c1)n1cncn1 (stereo unspecified)	-38.6
O=C(Cc1ccc2c(c1)OCC2)Nc1nc[nH]n1	-42.52
CCCc1cc(=O)[nH]c(-n2nc(C3CC3)cc2N)n1	78.26
COCCNC(=O)Nc1ccc(-n2cncn2)c(F)c1	-27.64
CC(=O)N1CCCN(C(C(=O)O)c2cccc(C)c2C)CC1 (stereo unspecified)	4.717
COCCN1CCc2cc(C(=O)NCC3CC3)c(NC(C)C)nc2CC1.O=C(O)C(F)(F)F.O=C(O)C(F)(F)F	-4.151
CC(C)(NS(C)(=O)=O)C(=O)NCCc1csc2ccccc12	-6.234
CCCN(CCC)C(=O)CN(C)C1CCc2ccccc21 (stereo unspecified)	10.47
Cc1ccc(C(=O)N(C)CC(=O)Nc2cccc(C)n2)cn1	-2.946
CCCN(CCC)C(=O)Cn1c(SC)nc2ccsc2c1=O	-23.03
Cc1c(C(=O)NCCC(C)C)nnn1-c1cccc2c1CCN(C)C2	33.04
O=C(NCc1ccccc1-n1cccn1)C1CC2(CCNCC2)CN1 (stereo unspecified)	40.65
CNCC(=O)NC1CC(C)(C)Cc2nc(C(C)(C)C)ncc21 (stereo unspecified)	-25.55
[H][C@@]12CO[C@@H](CNS(C)(=O)=O)[C@]1([H])CCN(C(=O)c1ccc[nH]1)C2	27.72
Cc1cc(C)n(CC2CCCCN2Cc2cscn2)n1 (stereo unspecified)	33.45
Cc1cc(C(=O)N2CC[C@@H](N(C)C)[C@@H]2Cc2ccccc2)no1.O=C(O)C(F)(F)F	3.974
CN(Cc1cccc(OC(F)F)c1)Cc1nc2c(cnn2C)c(=O)[nH]1	-25.39
COCCn1cnc2ccc(NC(=O)c3ccc(OC)cc3)cc2c1=O	28.68
CCN(CC)C1CCN(C(=O)NCc2c(C)noc2C)CC1	0.05826
CC(=O)N1CCCN(C(=O)CCc2c(C)nc3ccnn3c2C)CC1	15.3
O=C(O)C(F)(F)F.OCCOCc1nnn2c1CN(c1ncccn1)CCC2	-16.08
Cc1cc(NCC(=O)N(C)CC(F)(F)F)c(C(N)=O)cc1F	-21.71
CNS(=O)(=O)CC(=O)N1CCC(c2cc3ccccc3[nH]2)CC1	-62.08
CCN1CCC2(CC1)C(=O)Nc1ccc(C(=O)NC)cc12.O=C(O)C(F)(F)F	-43.29
CC(c1nc(C2CC2)no1)N1CCN(Cc2ccc(C#N)cc2)CC1 (stereo unspecified)	-8.732
[H][C@@]12CCCO[C@]1([H])[C@@H](NC(=O)c1nccn1C)CN2Cc1ccc(C)o1	-18.85
CCS(=O)(=O)N1CCC(c2cc3n(n2)[C@@H](C(F)(F)F)C[C@@H](C)N3)CC1	13.92
Cn1cc(-c2cnc3n2CCC32CCN(S(=O)(=O)C3CC3)CC2)cn1.O=C(O)C(F)(F)F	-13.15
COc1cnc(N2CCCN(c3ccc(F)cc3)CC2)nc1	-20.09
N#Cc1cnc(N2Cc3cnn(Cc4ccc(F)cc4)c3C2)nc1N	-7.37
[O-][S+](Cc1c(F)cccc1Cl)Cc1nnnn1C1CC1 (stereo unspecified)	-3.667
CCc1ncc(CN(CCc2ccccc2)Cc2cccs2)cn1.O=C(O)CC(O)(CC(=O)O)C(=O)O	11.84
[H][C@@]12CCN(Cc3ccncc3)C[C@]1([H])[C@@H](CNc1ncccn1)OC2	-32.68
CNC(=O)c1cc(S(=O)(=O)C(C)C)cs1	0.9277
CN([C@@H]1CC[C@@H](N2CCCC2)[C@@H]1O)S(=O)(=O)c1ccccc1	-3.976
Cc1cc(C(=O)OCC2CCCN2C(N)=O)c(C)o1 (stereo unspecified)	-13.38
CN(C)C(CNS(=O)(=O)c1ccc(F)cc1F)c1cccn1C (stereo unspecified)	-57.43
Cc1ccc(CN2CCN(C)c3ncccc3C2)o1	26.43
O=C(C1CCCCO1)N1CCc2ncnc(NCc3ccon3)c2CC1 (stereo unspecified)	-18.91
CCCn1cc(C(=O)n2nc(C)cc2C)c(S(=O)(=O)N2CCSCC2)n1	16.51
CC(C)C(C(=O)N1CCN(c2ccncc2)CC1)n1cncn1 (stereo unspecified)	9.836
COc1cccc(CN2CCCCCC2c2cccs2)c1O (stereo unspecified)	9.253
CN(C)Cc1cnc2n1CCN(C(=O)Cc1ccsc1)CC2.O=C(O)C(F)(F)F	-40.65
COCCOc1ccc(CNc2nc3ccccc3nc2N)cn1	-21.53
COCCNC(=O)CCNC(=O)c1ccc(N2CCC(C)=N2)cc1	0.04726
[H][C@@]12CNC[C@]1([H])N(C(=O)C1CCCCC1)CCO2	-17.19
CCc1ccsc1C(=O)N1CCN(C(=O)c2ccc(C)o2)CC1	-48.85
CNc1cc(N2CCCC2CNCc2cccc(C(N)=O)c2)ncn1 (stereo unspecified)	2.11
F[C@@H]1CN(CC2CC2)C[C@@H]1OCc1nc2cnccc2[nH]1	10.72

Repeated from the top, 10 entries:

compound	Percent Effect
O=c1n(CC2CCCO2)nc(CC2CCNCC2)n1-c1ccccc1 (stereo unspecified)	-3.302
CC(C)(O)CN1CCN(C(=O)c2sccc2C2CC2)CC1	-4.987
CC1CN(CCC(=O)NCCc2cccnc2)Cc2ccccc2O1 (stereo unspecified)	-18.82
O=C(O)C(F)(F)F.[H][C@@]12CN(C(=O)c3ccoc3C)C[C@]1([H])OCCN2C(C)C	5.268
CC(C)n1cc(C(=O)NCCN(C)C)c2n[nH]c(=O)c-2c1	-52.73
Cc1ccc2[nH]c(C3CCN(CC(N)=O)CC3)nc2c1	-23.96
Cc1nc(N2CCCC2)nc2c1CCN(C(=O)N(C)C)CC2	3.219
Cc1noc(C)c1CN(C)C(=O)C1(N)CCCCC1	-80.27
COc1ncccc1-c1cc(C(=O)NC2CC2)ccn1	-60.23
CCCC(NC(=O)c1cc(C)ccc1C)c1nnn[nH]1 (stereo unspecified)	14.14

Source: ChEMBL document CHEMBL3988442, “University of Dundee, Small-Polar-MMV Screening Library” (2021).